Some of the results follow.
What was measured:
Test in all cases: log2 fold change, soluble protein after heating vs DMSO (PISA); higher = thermal stabilisation; K562 lysate, 10 uM; active = over 0.2 and 3.5 SD of the protein, either way, in both replicates (recomputed)
alvocidib = compound: CN1CC[C@H](c2c(O)cc(O)c3c(=O)cc(-c4ccccc4Cl)oc23)[C@H](O)C1 [alvocidib]
Method in brief: (§1)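 Thermal stability, expressed as log-two fold change relative to solvent controls, is given from duplicates. Crude K562 extract in PBS pH 7.4 with 1 mM MgCl2, at 1 mg/mL protein, was treated with 10 μM compound for 30 min and heated in aliquots for 3 min across 48°C-58°C. After pooling, adjustment to 0.5% NP-40 at 4°C and centrifugation at 21,000xg for 90 min, supernatant protein was measured by TMTpro 16plex LC-MS/MS with channel sums equalised.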

Protein sequences, listed by entry. Tags and fused reporters are not part of them. Lines headed by an entry give the natural chain unless they say otherwise; changes in a name come on top.
UniProt Q9Y664: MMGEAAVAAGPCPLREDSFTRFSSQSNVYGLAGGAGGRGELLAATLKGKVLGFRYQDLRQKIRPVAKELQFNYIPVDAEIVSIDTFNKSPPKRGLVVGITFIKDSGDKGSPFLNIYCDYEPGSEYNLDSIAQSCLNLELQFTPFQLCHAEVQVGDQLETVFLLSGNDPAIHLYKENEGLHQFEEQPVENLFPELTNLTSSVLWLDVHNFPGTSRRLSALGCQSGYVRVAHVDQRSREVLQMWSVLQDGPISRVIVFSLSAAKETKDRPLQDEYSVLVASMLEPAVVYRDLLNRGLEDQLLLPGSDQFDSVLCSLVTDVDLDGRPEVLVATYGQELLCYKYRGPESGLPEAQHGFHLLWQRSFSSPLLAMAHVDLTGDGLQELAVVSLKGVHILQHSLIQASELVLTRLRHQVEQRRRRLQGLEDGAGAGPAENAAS
UniProt Q9NS87: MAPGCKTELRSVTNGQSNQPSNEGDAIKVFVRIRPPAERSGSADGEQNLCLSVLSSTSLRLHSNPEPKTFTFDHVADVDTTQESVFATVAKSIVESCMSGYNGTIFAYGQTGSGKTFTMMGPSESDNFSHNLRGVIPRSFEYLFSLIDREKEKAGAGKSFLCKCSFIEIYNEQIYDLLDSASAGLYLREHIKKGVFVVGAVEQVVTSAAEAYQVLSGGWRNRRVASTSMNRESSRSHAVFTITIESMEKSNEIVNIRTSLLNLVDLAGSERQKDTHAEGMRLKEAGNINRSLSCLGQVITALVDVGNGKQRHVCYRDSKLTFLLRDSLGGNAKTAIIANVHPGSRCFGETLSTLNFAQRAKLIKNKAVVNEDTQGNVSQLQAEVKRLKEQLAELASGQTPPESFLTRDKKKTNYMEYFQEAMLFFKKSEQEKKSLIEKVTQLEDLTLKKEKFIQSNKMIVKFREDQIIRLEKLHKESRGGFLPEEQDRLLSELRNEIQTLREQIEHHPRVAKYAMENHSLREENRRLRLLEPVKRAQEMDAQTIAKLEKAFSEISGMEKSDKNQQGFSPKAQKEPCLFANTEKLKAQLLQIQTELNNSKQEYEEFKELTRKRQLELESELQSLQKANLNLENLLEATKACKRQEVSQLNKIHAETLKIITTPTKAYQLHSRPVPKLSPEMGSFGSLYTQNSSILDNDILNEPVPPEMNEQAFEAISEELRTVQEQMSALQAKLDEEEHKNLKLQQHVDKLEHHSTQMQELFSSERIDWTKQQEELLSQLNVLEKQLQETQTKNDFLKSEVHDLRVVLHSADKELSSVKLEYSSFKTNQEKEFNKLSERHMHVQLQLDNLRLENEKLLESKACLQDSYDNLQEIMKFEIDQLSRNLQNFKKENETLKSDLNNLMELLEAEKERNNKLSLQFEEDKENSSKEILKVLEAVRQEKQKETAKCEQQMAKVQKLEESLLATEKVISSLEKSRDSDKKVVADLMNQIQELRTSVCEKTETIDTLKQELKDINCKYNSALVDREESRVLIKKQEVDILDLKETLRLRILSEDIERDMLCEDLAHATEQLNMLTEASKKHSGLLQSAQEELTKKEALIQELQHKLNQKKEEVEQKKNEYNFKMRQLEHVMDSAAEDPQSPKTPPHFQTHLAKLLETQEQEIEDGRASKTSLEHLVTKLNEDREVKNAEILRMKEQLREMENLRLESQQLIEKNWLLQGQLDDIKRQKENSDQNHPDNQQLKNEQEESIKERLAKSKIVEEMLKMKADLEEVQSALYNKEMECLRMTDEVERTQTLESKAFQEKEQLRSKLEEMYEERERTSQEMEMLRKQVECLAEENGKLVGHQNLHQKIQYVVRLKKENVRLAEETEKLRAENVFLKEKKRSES
UniProt Q16719: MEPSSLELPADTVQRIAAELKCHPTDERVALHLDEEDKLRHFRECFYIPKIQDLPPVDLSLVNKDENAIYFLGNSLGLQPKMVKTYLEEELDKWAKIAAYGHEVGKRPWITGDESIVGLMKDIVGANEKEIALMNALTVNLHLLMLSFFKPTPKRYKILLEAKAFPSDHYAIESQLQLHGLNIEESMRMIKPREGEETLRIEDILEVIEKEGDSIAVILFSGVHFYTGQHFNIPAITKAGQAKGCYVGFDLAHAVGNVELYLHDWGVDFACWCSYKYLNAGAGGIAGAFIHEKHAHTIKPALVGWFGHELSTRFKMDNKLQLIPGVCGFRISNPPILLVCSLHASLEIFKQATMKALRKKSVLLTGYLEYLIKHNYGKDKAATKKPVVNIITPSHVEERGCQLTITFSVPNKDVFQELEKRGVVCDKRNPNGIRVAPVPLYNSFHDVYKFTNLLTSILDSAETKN
UniProt Q9P206: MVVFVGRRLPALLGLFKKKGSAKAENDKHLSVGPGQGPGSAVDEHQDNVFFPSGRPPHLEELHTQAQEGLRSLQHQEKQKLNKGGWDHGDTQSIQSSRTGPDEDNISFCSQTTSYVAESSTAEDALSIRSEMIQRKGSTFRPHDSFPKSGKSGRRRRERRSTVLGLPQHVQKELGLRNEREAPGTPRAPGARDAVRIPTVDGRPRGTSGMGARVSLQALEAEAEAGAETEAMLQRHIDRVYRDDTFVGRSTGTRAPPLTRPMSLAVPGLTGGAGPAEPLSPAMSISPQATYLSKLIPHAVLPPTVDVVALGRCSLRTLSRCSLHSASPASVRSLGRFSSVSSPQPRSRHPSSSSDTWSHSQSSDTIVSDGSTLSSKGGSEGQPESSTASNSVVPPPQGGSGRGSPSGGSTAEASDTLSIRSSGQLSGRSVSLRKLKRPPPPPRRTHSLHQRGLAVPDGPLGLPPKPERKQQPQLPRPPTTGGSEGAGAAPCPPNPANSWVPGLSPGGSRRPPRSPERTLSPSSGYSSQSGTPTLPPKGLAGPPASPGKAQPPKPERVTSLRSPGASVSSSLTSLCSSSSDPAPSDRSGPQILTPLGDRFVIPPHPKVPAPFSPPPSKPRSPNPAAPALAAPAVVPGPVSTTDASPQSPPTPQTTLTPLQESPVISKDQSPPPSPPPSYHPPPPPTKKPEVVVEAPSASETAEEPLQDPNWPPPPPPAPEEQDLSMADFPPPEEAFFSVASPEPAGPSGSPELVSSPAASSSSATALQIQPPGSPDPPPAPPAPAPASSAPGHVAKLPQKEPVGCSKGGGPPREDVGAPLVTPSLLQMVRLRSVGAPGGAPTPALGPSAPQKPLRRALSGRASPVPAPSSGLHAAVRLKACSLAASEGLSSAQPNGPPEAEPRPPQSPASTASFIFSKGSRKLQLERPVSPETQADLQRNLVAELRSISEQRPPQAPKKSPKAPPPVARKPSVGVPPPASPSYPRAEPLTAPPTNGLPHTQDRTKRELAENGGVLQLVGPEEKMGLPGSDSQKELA
UniProt Q9H0B6: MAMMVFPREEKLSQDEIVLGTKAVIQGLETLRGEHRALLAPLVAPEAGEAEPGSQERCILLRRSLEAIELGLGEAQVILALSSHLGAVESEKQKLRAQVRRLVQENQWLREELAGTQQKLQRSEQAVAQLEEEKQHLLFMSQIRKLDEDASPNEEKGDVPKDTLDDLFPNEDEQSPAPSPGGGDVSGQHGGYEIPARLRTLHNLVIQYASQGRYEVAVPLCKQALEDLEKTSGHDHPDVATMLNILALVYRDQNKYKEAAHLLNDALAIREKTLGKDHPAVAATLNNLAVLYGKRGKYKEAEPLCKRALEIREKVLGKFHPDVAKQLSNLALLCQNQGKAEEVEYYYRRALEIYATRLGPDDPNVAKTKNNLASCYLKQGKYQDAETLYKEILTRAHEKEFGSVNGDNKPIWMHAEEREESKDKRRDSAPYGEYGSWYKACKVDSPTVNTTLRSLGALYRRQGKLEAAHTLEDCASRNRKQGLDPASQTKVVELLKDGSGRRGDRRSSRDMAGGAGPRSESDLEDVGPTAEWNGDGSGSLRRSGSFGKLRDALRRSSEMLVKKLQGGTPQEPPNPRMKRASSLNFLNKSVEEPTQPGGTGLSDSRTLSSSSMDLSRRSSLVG
UniProt Q07666, whole entry, looked up: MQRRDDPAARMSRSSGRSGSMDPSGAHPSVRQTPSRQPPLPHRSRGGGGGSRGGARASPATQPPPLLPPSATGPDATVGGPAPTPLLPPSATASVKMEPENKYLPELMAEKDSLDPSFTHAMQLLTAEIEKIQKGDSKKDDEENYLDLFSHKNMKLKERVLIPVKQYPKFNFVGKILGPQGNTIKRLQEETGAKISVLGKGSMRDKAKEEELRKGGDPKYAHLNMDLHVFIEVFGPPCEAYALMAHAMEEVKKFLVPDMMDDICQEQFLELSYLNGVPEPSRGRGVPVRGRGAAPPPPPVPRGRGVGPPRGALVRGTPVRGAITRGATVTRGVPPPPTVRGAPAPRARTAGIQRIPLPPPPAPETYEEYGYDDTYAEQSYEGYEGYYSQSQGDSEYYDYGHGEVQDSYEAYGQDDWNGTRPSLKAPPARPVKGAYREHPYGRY
UniProt Q96EM0: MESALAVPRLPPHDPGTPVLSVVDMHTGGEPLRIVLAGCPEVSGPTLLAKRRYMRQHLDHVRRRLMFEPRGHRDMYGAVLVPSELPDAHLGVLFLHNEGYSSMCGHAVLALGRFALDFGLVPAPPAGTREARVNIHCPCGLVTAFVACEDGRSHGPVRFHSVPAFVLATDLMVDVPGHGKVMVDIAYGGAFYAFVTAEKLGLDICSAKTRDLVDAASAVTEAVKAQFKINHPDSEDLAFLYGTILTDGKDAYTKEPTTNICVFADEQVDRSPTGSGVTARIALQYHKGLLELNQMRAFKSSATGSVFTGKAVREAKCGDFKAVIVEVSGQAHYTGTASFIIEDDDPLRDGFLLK
UniProt Q13601: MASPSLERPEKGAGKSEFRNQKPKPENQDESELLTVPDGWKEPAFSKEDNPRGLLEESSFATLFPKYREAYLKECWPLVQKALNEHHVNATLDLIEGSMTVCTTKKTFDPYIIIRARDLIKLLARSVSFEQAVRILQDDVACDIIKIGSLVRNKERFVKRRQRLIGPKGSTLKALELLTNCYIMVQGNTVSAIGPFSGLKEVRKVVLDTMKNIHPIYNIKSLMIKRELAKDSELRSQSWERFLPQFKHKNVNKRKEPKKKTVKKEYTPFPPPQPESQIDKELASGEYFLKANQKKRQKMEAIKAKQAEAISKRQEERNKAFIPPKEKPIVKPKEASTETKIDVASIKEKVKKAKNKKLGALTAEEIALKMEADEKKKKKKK
UniProt O60268: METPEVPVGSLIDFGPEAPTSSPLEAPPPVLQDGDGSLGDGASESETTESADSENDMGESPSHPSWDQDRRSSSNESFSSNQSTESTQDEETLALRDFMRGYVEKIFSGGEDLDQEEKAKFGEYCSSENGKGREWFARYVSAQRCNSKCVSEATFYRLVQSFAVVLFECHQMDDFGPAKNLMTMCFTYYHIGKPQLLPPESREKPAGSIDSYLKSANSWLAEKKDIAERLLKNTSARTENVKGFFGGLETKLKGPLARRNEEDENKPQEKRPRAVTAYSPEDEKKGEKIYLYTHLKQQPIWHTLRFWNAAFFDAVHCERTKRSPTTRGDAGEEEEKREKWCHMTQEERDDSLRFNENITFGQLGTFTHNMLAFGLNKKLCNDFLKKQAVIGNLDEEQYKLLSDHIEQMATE
UniProt Q92615, whole entry, looked up: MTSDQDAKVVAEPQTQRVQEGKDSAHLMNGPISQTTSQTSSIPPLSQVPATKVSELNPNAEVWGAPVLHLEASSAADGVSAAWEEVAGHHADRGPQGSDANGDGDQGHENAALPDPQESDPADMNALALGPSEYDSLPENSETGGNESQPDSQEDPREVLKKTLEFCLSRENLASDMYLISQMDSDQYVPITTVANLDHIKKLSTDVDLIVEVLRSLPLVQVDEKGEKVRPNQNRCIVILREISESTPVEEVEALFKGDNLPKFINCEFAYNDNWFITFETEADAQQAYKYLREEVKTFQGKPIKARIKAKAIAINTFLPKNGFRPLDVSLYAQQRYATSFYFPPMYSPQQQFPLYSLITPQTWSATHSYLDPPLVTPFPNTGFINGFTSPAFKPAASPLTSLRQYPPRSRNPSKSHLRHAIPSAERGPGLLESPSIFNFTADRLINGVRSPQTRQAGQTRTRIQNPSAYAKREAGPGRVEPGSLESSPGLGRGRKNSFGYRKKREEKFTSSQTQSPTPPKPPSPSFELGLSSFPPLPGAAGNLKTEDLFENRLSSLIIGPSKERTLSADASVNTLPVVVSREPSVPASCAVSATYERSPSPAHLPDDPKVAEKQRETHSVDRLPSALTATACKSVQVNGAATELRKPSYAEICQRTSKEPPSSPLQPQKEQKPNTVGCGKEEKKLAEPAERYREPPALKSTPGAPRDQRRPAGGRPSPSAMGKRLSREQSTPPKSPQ

Tubastatin A = compound: CN1CCc2c(c3ccccc3n2Cc2ccc(C(=O)NO)cc2)C1 [Tubastatin A]
Method in brief: as §1

[1] = compound: CNC(=O)C1=CC=CC=C1NC2=NC(=NC=C2Cl)NC3=C(C=C(C=C3)N4CCOCC4)OC
Method in brief: as §1

defactinib = compound: CNC(=O)c1ccc(Nc2ncc(C(F)(F)F)c(NCc3nccnc3N(C)S(C)(=O)=O)n2)cc1 [defactinib]
Method in brief: as §1

[2] = compound: CNc1nc(-c2ccc3c(N)n[nH]c3c2)cc(N2C[C@@H](C(=O)NC3CCCCC3)CC[C@H]2C)n1
Method in brief: as §1

encorafenib = compound: COC(=O)N[C@@H](C)CNc1nccc(-c2cn(C(C)C)nc2-c2cc(Cl)cc(NS(C)(=O)=O)c2F)n1 [encorafenib]
Method in brief: as §1

[3] = compound: COC(=O)[C@H](CCSC)NC(=O)C1=C(C=C(C=C1)NC[C@H](CS)N)C2=CC=CC=C2
Method in brief: as §1

alisertib = compound: COc1cc(Nc2ncc3c(n2)-c2ccc(Cl)cc2C(c2c(F)cccc2OC)=NC3)ccc1C(=O)O [alisertib]
Method in brief: as §1

[4] = compound: COc1cc2nc(-c3cc(F)ccc3O)nc(N[C@@H]3CNC[C@H]3C(C)(C)O)c2cc1OC
Method in brief: as §1

gefitinib = compound: COc1cc2ncnc(Nc3ccc(F)c(Cl)c3)c2cc1OCCCN1CCOCC1 [gefitinib]
Method in brief: as §1

lapatinib = compound: CS(=O)(=O)CCNCc1ccc(-c2ccc3ncnc(Nc4ccc(OCc5cccc(F)c5)c(Cl)c4)c3c2)o1 [lapatinib]
Method in brief: as §1

pictilisib = compound: CS(=O)(=O)N1CCN(Cc2cc3nc(-c4cccc5[nH]ncc45)nc(N4CCOCC4)c3s2)CC1 [pictilisib]
Method in brief: as §1

crizotinib = compound: C[C@@H](Oc1cc(-c2cnn(C3CCNCC3)c2)cnc1N)c1c(Cl)ccc(F)c1Cl [crizotinib]
Method in brief: as §1

[5] = compound: C[C@H](C1=CC=C(C=C1)C(=O)NC2=C3C=CNC3=NC=C2)N
Method in brief: as §1

duvelisib = compound: C[C@H](Nc1ncnc2nc[nH]c12)c1cc2cccc(Cl)c2c(=O)n1-c1ccccc1 [duvelisib]
Method in brief: as §1

gandotinib = compound: Cc1cc(Nc2cc(CN3CCOCC3)c3nc(C)c(Cc4ccc(Cl)cc4F)n3n2)n[nH]1 [gandotinib]
Method in brief: as §1

tozasertib = compound: Cc1cc(Nc2cc(N3CCN(C)CC3)nc(Sc3ccc(NC(=O)C4CC4)cc3)n2)n[nH]1 [tozasertib]
Method in brief: as §1

doramapimod = compound: Cc1ccc(-n2nc(C(C)(C)C)cc2NC(=O)Nc2ccc(OCCN3CCOCC3)c3ccccc23)cc1 [doramapimod]
Method in brief: as §1

bafetinib = compound: Cc1ccc(NC(=O)c2ccc(CN3CC[C@H](N(C)C)C3)c(C(F)(F)F)c2)cc1Nc1nccc(-c2cncnc2)n1 [bafetinib]
Method in brief: as §1

[6] = compound: Cc1cccc(CC(=O)N2CCc3c2ccc(-c2cn(C)c4ncnc(N)c24)c3F)n1
Method in brief: as §1

Measured: log2 fold change

KIF11 (UniProt P52732)
inactive: alvocidib 0.008 | Tubastatin A -0.107 | [1] 0.035 | defactinib -0.007 | [2] -0.022 | encorafenib 0.034 | [3] 0.032 | alisertib -0.013 | [4] -0.003 | gefitinib 0.016 | lapatinib 0 | pictilisib 0.021 | crizotinib 0.001 | [5] -0.03 | duvelisib 0.017 | gandotinib -0.042 | tozasertib 0.006 | doramapimod 0.014 | bafetinib -0.014 | [6] 0.063

KPTN (UniProt Q9Y664)
inactive: alvocidib -0.038 | Tubastatin A -0.042 | [1] 0.032 | defactinib 0.054 | [2] 0.026 | encorafenib -0.048 | [3] 0.076 | alisertib -0.054 | [4] -0.013 | gefitinib 0.174 | lapatinib -0.009 | pictilisib 0.026 | crizotinib -0.054 | [5] -0.097 | duvelisib -0.013 | gandotinib 0.077 | tozasertib 0.002 | doramapimod 0.049 | bafetinib -0.08 | [6] 0.016

KNL1 (UniProt Q8NG31)
inactive: alvocidib -0.008 | Tubastatin A -0.073 | [1] 0.024 | defactinib -0.007 | [2] 0.018 | encorafenib 0.043 | [3] 0.055 | alisertib -0.032 | [4] 0.004 | gefitinib 0.008 | lapatinib 0.007 | pictilisib -0.031 | crizotinib -0.015 | [5] -0.011 | duvelisib -0.001 | gandotinib -0.032 | tozasertib -0.027 | doramapimod 0.008 | bafetinib -0.017 | [6] 0.016

KIF15 (UniProt Q9NS87)
inactive: alvocidib -0.002 | Tubastatin A -0.058 | [1] 0.006 | defactinib -0.011 | [2] 0.006 | encorafenib 0.01 | [3] 0.121 | alisertib -0.013 | [4] -0.014 | gefitinib 0.003 | lapatinib -0.02 | pictilisib 0.006 | crizotinib -0.017 | [5] 0 | duvelisib -0.002 | gandotinib -0.017 | tozasertib 0.008 | doramapimod 0.006 | bafetinib -0.025 | [6] 0.033

KYNU (UniProt Q16719)
inactive: alvocidib -0.051 | Tubastatin A 0.078 | [1] 0.021 | defactinib 0.012 | [2] -0.01 | encorafenib 0.007 | [3] -0.029 | alisertib -0.049 | [4] 0.001 | gefitinib 0.027 | lapatinib -0.014 | pictilisib 0.039 | crizotinib 0.013 | [5] -0.024 | duvelisib -0.057 | gandotinib 0.048 | tozasertib 0.02 | doramapimod 0.009 | bafetinib -0.012 | [6] 0.009

KIAA1522 isoform 2 (UniProt Q9P206)
inactive: alvocidib 0 | Tubastatin A -0.087 | [1] -0.006 | defactinib 0.046 | [2] 0.015 | encorafenib 0.146 | [3] -0.041 | alisertib -0.008 | [4] -0.015 | gefitinib 0.033 | lapatinib 0.008 | pictilisib -0.056 | crizotinib -0.01 | [5] -0.011 | duvelisib -0.016 | gandotinib -0.02 | tozasertib 0.052 | doramapimod 0.018 | bafetinib 0.026 | [6] 0.019

KIF5B (UniProt P33176)
inactive: alvocidib 0.014 | Tubastatin A -0.03 | [1] 0.002 | defactinib 0.022 | [2] -0.009 | encorafenib -0.008 | [3] 0.054 | alisertib -0.007 | [4] 0.008 | gefitinib 0.013 | lapatinib -0.019 | pictilisib 0.006 | crizotinib 0.007 | [5] 0.051 | duvelisib -0.031 | gandotinib -0.072 | tozasertib -0.011 | doramapimod 0.011 | bafetinib 0.015 | [6] -0.048

KLC2 (UniProt Q9H0B6)
inactive: alvocidib -0.034 | Tubastatin A -0.072 | [1] 0.004 | defactinib -0.048 | [2] -0.006 | encorafenib 0.01 | [3] 0.043 | alisertib -0.038 | [4] 0.001 | gefitinib -0.098 | lapatinib -0.012 | pictilisib -0.057 | crizotinib -0.047 | [5] 0.025 | duvelisib -0.031 | gandotinib -0.145 | tozasertib 0.012 | doramapimod 0.065 | bafetinib -0.043 | [6] 0.074

KHDRBS1 (UniProt Q07666)
inactive: alvocidib 0.039 | Tubastatin A -0.045 | [1] 0.017 | defactinib -0.006 | [2] 0.007 | encorafenib 0.019 | [3] -0.139 | alisertib -0.025 | [4] 0.011 | gefitinib -0.01 | lapatinib -0.035 | pictilisib 0.024 | crizotinib 0.025 | [5] 0.046 | duvelisib 0.005 | gandotinib -0.08 | tozasertib 0.008 | doramapimod -0.017 | bafetinib 0.039 | [6] -0.031

L3HYPDH (UniProt Q96EM0)
inactive: alvocidib 0.023 | Tubastatin A -0.052 | [1] 0.005 | defactinib -0.012 | [2] 0.022 | encorafenib -0.017 | [3] 0.039 | alisertib -0.019 | [4] -0.005 | gefitinib -0.013 | lapatinib -0.019 | pictilisib -0.032 | crizotinib -0.028 | [5] -0.045 | duvelisib -0.014 | gandotinib 0.018 | tozasertib -0.002 | doramapimod 0.036 | bafetinib -0.018 | [6] -0.048

KRR1 (UniProt Q13601)
inactive: alvocidib 0.028 | Tubastatin A -0.033 | [1] -0.054 | defactinib 0.01 | [2] -0.005 | encorafenib 0.092 | [3] 0.023 | alisertib 0.032 | [4] 0.046 | gefitinib -0.014 | lapatinib -0.039 | pictilisib 0.03 | crizotinib -0.228 | [5] 0.05 | duvelisib -0.037 | gandotinib -0.097 | tozasertib -0.038 | doramapimod 0.127 | bafetinib -0.039 | [6] 0.002

KIAA0513 (UniProt O60268)
inactive: alvocidib -0.048 | Tubastatin A 0.024 | [1] 0.001 | defactinib -0.011 | [2] 0.037 | encorafenib 0.076 | [3] 0.009 | alisertib -0.03 | [4] 0.059 | gefitinib 0.046 | lapatinib 0.017 | pictilisib -0.006 | crizotinib -0.002 | [5] -0.009 | duvelisib -0.057 | gandotinib 0.087 | tozasertib -0.039 | doramapimod 0.06 | bafetinib -0.018 | [6] 0.068

KIAA0319L (UniProt Q8IZA0)
inactive: alvocidib -0.016 | Tubastatin A 0.032 | [1] -0.029 | defactinib -0.007 | [2] -0.007 | encorafenib 0.049 | [3] -0.013 | alisertib 0.031 | [4] -0.001 | gefitinib 0.055 | lapatinib 0.002 | pictilisib -0.016 | crizotinib 0.077 | [5] -0.009 | duvelisib 0 | gandotinib -0.001 | tozasertib 0.026 | doramapimod -0.043 | bafetinib -0.002 | [6] -0.012

LAMP2 (UniProt P13473)
inactive: alvocidib -0.046 | Tubastatin A 0.041 | [1] 0.026 | defactinib 0.04 | [2] -0.027 | encorafenib 0.036 | [3] -0.029 | alisertib 0.012 | [4] -0.017 | gefitinib -0.001 | lapatinib 0.024 | pictilisib -0.067 | crizotinib 0.04 | [5] -0.123 | duvelisib 0.05 | gandotinib 0.08 | tozasertib -0.05 | doramapimod 0.021 | bafetinib -0.005 | [6] 0.018

2 consecutive records out of the list so far:
L3HYPDH (UniProt Q96EM0)
inactive: alvocidib 0.023 | Tubastatin A -0.052 | [1] 0.005 | defactinib -0.012 | [2] 0.022 | encorafenib -0.017 | [3] 0.039 | alisertib -0.019 | [4] -0.005 | gefitinib -0.013 | lapatinib -0.019 | pictilisib -0.032 | crizotinib -0.028 | [5] -0.045 | duvelisib -0.014 | gandotinib 0.018 | tozasertib -0.002 | doramapimod 0.036 | bafetinib -0.018 | [6] -0.048

KRR1 (UniProt Q13601)
inactive: alvocidib 0.028 | Tubastatin A -0.033 | [1] -0.054 | defactinib 0.01 | [2] -0.005 | encorafenib 0.092 | [3] 0.023 | alisertib 0.032 | [4] 0.046 | gefitinib -0.014 | lapatinib -0.039 | pictilisib 0.03 | crizotinib -0.228 | [5] 0.05 | duvelisib -0.037 | gandotinib -0.097 | tozasertib -0.038 | doramapimod 0.127 | bafetinib -0.039 | [6] 0.002

Additional entries.

LARP4B (UniProt Q92615)
inactive: alvocidib 0.001 | Tubastatin A -0.118 | [1] 0.005 | defactinib 0.023 | [2] -0.027 | encorafenib 0.024 | [3] 0.015 | alisertib 0.025 | [4] -0.013 | gefitinib -0.006 | lapatinib 0.01 | pictilisib 0.016 | crizotinib -0.019 | [5] -0.051 | duvelisib -0.033 | gandotinib 0.029 | tozasertib -0.009 | doramapimod -0.044 | bafetinib -0.047 | [6] 0.096

KLHL18 (UniProt O94889)
inactive: alvocidib -0.009 | Tubastatin A -0.079 | [1] 0.026 | defactinib 0.073 | [2] -0.016 | encorafenib -0.112 | [3] -0.103 | alisertib 0.009 | [4] -0.023 | gefitinib -0.088 | lapatinib -0.024 | pictilisib 0.008 | crizotinib -0.139 | [5] -0.098 | duvelisib 0.032 | gandotinib 0.032 | tozasertib 0.012 | doramapimod 0.121 | bafetinib -0.024 | [6] 0.056
